In the test the target is monkey PD-L1 protein (hybridoma screening) (monkey). The experiment in a line: ELISA, hybridoma screening.

These are yes or no findings as the source states them, for the method shown. Binding can be weak; no strength is given.

B1: 36C06-D8 (antibody, V domains shown)
VH: QVQLQQSGAELVKPGASVKLSCKASGYAFTGYTIHWVKQRSGLGLEWLGWFYPGSGTLKYNEKFKDKATLTADKSSSTVYLELSRLTSEDSAVYFCARHGTGTLMAMDYWGQGTSVTVSS
VL: DVVVTQTPLSLPVSFGDQVSISCRSSQSLANSYGNTYLSWYLHKPGQSPQLLIYGISNRFSGVPDRFSGSGSGTDFTLKISTIKPEDLGMYYCLQGTHQPPTFGGGTKLEIK
notes: also called hybridoma 36C06/D8; mouse monoclonal antibody against human PD-L1
Regarding B1, the binding result is listed as “binds”.

Source of the values: patent publication US20220089741A1 (HUABO BIOPHARM SHANGHAI, published 2022).
